Measured values as given in publication PMC7005485.

Target: NanoLuc-tagged HBc (hepatitis B virus)
Assay: FRET or BRET; NanoBRET screen in living HEK293 cells: NanoLuc-fused HBc and 150 HaloTag-fused phosphatases co-transfected (HaloTag:NanoLuc vectors 100:1), read 48 h after transfection; BRET ratio >0.2 as threshold

B1: HaloTag-PDP2 (pyruvate dehydrogenase phosphatase catalytic subunit 2) (enzyme, UniProt Q9P2J9 67-529)
chain: STEEDDFHLQLSPEQINEVLRAGETTHKILDLESRVPNSVLRFESNQLAANSPVEDRRGVASCLQTNGLMFGIFDGHGGHACAQAVSERLFYYVAVSLMSHQTLEHMEGAMESMKPLLPILHWLKHPGDSIYKDVTSVHLDHLRVYWQELLDLHMEMGLSIEEALMYSFQRLDSDISLEIQAPLEDEVTRNLSLQVAFSGATACMAHVDGIHLHVANAGDCRAILGVQEDNGMWSCLPLTRDHNAWNQAELSRLKREHPESEDRTIIMEDRLLGVLIPCRAFGDVQLKWSKELQRSILERGFNTEALNIYQFTPPHYYTPPYLTAEPEVTYHRLRPQDKFLVLASDGLWDMLSNEDVVRLVVGHLAEADWHKTDLAQRPANLGLMQSLLLQRKASGLHEADQNAATRLIRHAIGNNEYGEMEAERLAAMLTLPEDLARMYRDDITVTVVYFNSESIGAYYKGG
- binding: binds

Results are given in words; binding and its absence hold for the method and conditions named. In cells and extracts the contact can be indirect. Binding calls can cover weak binding; strength is not graded here. Tags and fused reporters may be left off the sequences shown.
